Drawing on patent US20230250186A1, this text covers binding for three molecules.

Amino acid sequences for entries named in this document (tags omitted). Residues count along the entry.
UniProt P28907, residues 43-300: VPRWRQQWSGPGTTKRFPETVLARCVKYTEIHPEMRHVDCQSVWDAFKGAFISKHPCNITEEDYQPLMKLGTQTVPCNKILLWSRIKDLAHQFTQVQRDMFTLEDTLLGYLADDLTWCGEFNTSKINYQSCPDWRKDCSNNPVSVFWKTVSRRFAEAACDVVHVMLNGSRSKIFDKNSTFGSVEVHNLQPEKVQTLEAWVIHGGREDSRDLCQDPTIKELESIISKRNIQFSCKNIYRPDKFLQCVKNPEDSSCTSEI

Results are given in words; binding and its absence hold for the method and conditions named. Some results given as binding are weak or reduced against the parent protein; the word gives no strength.

The test addresses antigen CD38 (UniProt P28907). Kind of test: binding curve of FIG. 9; method not clearly stated.

B1: SG003M1 antibody (antibody, human IgG1, kappa, V domains shown)
VH: QVQLLESGGGLVQPGGSLKLSCVASGYNFSLYYMNWVRQAPGKGLEWIGKIQPESSTIQYTPSLKDKFFISRDNAKNTLYLQMTKVRSEDTALYYCARLWIGSGGFDYWGQGTTLTVSS
VL: EIVMTQSPASLSASLGQRASISCRASNSVSSSAYSYVHWYQQKSGQPPKLLIYLASNIQSGVPARFSGSGSGTDFTLTIHPVESEDVATYYCHHSRQLPSTFGSGTKLEIKR
Regarding B1, the binding result is given as “binds”.

B2: SG003M3 antibody (antibody, human IgG1, kappa, V domains shown)
VH: QVQLLESGGGLVQPGGSLKLSCVASGFDFSLYWMNWVRQAPGKGLEWIGKISPDSSSLNYTPSVKDKFFISRDNAKNTLYLQMTKVRSEDTALYYCARLWIATGGYNYWGQGTTLTVSS
VL: EIVMTQSPASLSASLGQRATISCRASNSVSTSAFSYVHWYQQKSGQPPKLLIYLASNLESGVPARFSGSGSGTDFTLTIHPVESEDVATYYCHHSREVPFTFGSGTKLEIKR
B2: the binding result is listed as “binds”.

B3: SG003M2 antibody (antibody, human IgG1, kappa, V domains shown)
VH: QVQLLESGGGLVQPGGSLKLSCVASGFDFSLYWMNWVRQAPGKGLEWIGKISPNSSTINYSPSLKDKFFISRDNAKNTLYLQMTKVRSEDTALYYCARLYIASGGFDYWGQGTTLTVSS
VL: EIVMTQSPASLSASLGQRATISCRASSSVSSSAYSYVHWYQQKSGQPPKLLIYLASDLQSGVPARFSGSGSGTDFTLTIHPVESEDVATYYCHHSRELPYSFGSGTKLEIKR
For the molecule B3, the binding entry was “binds”.
